# Hit rate of the full screen: of about 52,000 sequences, about 210 (0.4%) were called active.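 The calls were made as follows: active = gene whose silencing raises cell survival under the drug, median off-target-corrected z-score across its silencing RNAs 2 or more; inactive = the rest.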 The list shows a part of the results.
# Experiment: Resistance to Poly (ADP-Ribose) Polymerase inhibitor: Gene Identification via Genome-wide siRNA Screen
# Details: mouse BRCA2 R2336H ES cells, olaparib, CellTiter-Glo viability; active compounds read high
# Summary of the method: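 Mouse BRCA2 R2336H ES cells were reverse-transfected with siRNA (20 nM final), treated at 48 h with 500 nM olaparib, and read by CellTiter-Glo after 72 h. Scores: MAD-based z per siRNA, median per gene, seed off-target correction.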
row,Sequence,z-score
1,GCUUUAUCGCAGAAAAGGUTT against Nova2,inactive: -0.0254
2,GGACACUUCCAAACUGACCTT against Tiparp,inactive: -0.00604
3,GGACAAGAGACUUCAUAGCTT against Grpel2,inactive: 0.54
4,GGAUCUAAUAAACCAAGUGTT against Slc25a10,inactive: -1.59
5,GGCUAAUGAAGCACGCAGATT against 1300010A20Rik,inactive: 1.99
6,GCAGCUAACAAAUGUCAGCTT against Popdc3,inactive: 0.324
7,GGACUAUAAAUGUAUUCUCTT against Tfpi2,inactive: -0.935
8,GGUAAAUAGUGACCAUGAATT against C330017I15Rik,inactive: 1.35
9,GGAAAACUUUUCUGUCUGUTT against Dhx32,inactive: 0.096
10,GGGUUUAUCUUGAAGAAAATT against Cd48,inactive: -0.222
11,GGAAAACAAGAGGUGAUCUTT against 3110001I22Rik,inactive: 0.525
12,GUCCUGAAGAAGCUCAAGATT against Cart,inactive: 1.03
13,GUAAAUACACCCAAACUGATT against Olfr1281,inactive: 0.117
14,GGGUUUGUGGCUUCUUUUCTT against Ucp1,inactive: 0.909
15,GAGCUGUUGUAUCAACUCUTT against Rslcan24,inactive: 0.578
16,GCACAUCUCAUGAAGGAGGTT against Ppp3ca,inactive: 1.64
17,GGGAUACCUCUGAGUGACUTT against A930027H06Rik,inactive: 0.0836
18,GGACAGUCUACAUCUUUGUTT against AI428936,inactive: -1.05
19,GGAAAGCAUCUGCAUUAAATT against Mrpl18,inactive: -0.206
20,CCCGCUGAGAUACUCUGUATT against Olfr1395,inactive: -0.904
21,GGUGGAGAUCCGAAAGCAUTT against Ltk,inactive: 0.652
22,GGACAGAUGACUUCAAUACTT against MP4,inactive: 0.569
23,GGGAGAACAGCGACAAACATT against Cbfb,inactive: -1.88
24,CGAUCUGACAACUGAUAAGTT against Rad17,inactive: -0.48
25,GGAUAAUACAUCCCAAAACTT against Prkar2b,inactive: 2.74
26,CCCUCAAAACCUAUGCCUUTT against Ugt1a2,inactive: -0.0873
27,GCACAAGGACACGGAAUACTT against Npr3,inactive: -1.96

# Rewritten as tab-separated lines: entries from further up
row	Sequence	z-score
6	GCAGCUAACAAAUGUCAGCTT against Popdc3	inactive: 0.324
7	GGACUAUAAAUGUAUUCUCTT against Tfpi2	inactive: -0.935
8	GGUAAAUAGUGACCAUGAATT against C330017I15Rik	inactive: 1.35
9	GGAAAACUUUUCUGUCUGUTT against Dhx32	inactive: 0.096

# The list goes on.

row,Sequence,z-score
1,GCAACCUGUCAUUUUGUGATT against Olfr1134,inactive: -0.249
2,CCUUAUAUCUUGGUAUACGTT against Bmp3,inactive: 1.03
3,GGAUUGAGGGUCAAAUAACTT against Fkbp8,inactive: -0.326
4,CCUGAUCUCUUGCUACACCTT against Trpm3,inactive: -0.274
5,GCGCAUUGUGUUCUGGUCUTT against Zswim4,inactive: -1.04
6,GGAAGUUUCUGAGACUGUATT against Epx,inactive: -1.99
7,CCGGCUUCACCGAAUACUUTT against B930076A02,inactive: -1.05
8,GCCUUGUUACAAAUAGUCGTT against Tcf12,inactive: 1.17
9,GGUUGUUCUUGUCAGUAUUTT against Serpinb6c,inactive: 0.256
10,GGCAACACGAUGCAGCAGUTT against D0HXS9928E,inactive: 0.0401
11,GGAACACAGAGGUAAAAGGTT against Olfr446,inactive: -0.14
12,GGCUAUGCAUCUCCUGUCATT against Gata4,inactive: -2.06
13,GGAAAGACUGCCUAUUCUGTT against Adfp,inactive: -0.535
14,GGGUGUUCCUAUCUCCUUCTT against Angptl6,inactive: 0.00721
15,GGAAGAUCAUUGAUAACGCTT against 2810465F10Rik,inactive: -0.697
16,GGUAGAGUUGGCUUUAUGGTT against Rhoa,inactive: -0.062
17,GGGAAAUAAGUCUCGAACGTT against Kif13a,inactive: 1.35
18,GCUGAAUUCAUUCAUAGCCTT against Cyp2d26,inactive: 0.925
19,GGGCUUUUGUUUUGAAACATT against Smc1l2,inactive: -1.14
20,CCCAUAACCAGAAUUAAAGTT against 4930511H01Rik,inactive: -0.176
21,CCUAAAAUCCACCAAGCUUTT against Btbd4,inactive: -2.09
22,GGUACAAGAGAUUUGAAAATT against AV249152,inactive: -0.438
23,GGUUCCACUCAACUGAAGATT against Actl7b,inactive: 2.26
24,GGAUGAGGAUGACUUUGAGTT against Tnk2,inactive: -3.09
25,CCUAUCUUCCUGAAUACAUTT against Aqp7,inactive: 0.231
26,GGCUGCUCAAAAAGAACAUTT against Kif21b,inactive: -1.16

# — PubChem BioAssay AID1347423 (Functional Genomics Laboratory (NCATS/FGL), 2020)
